Source: the M2OR odorant receptor database
The list shows a part of the results, in another mix than the full data. The calls were merged from several studies; some rest on single wells. The list shows a part of the results.

By UniProt entry, the sequences of proteins in these tests, tags left out. Chains listed by the source or under a name are the forms on record and can include a tag or linker.
UniProt E9PVX1, as listed by the source: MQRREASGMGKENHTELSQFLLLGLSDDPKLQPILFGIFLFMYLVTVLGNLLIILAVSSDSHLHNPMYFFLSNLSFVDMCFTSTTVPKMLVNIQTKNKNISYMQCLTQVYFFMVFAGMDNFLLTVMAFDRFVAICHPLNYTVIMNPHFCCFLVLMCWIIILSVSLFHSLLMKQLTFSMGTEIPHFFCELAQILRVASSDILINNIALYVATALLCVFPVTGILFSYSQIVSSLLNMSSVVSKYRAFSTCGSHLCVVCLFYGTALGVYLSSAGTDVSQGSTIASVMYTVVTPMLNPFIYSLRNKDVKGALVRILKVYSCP
UniProt E9PZ66, as listed by the source: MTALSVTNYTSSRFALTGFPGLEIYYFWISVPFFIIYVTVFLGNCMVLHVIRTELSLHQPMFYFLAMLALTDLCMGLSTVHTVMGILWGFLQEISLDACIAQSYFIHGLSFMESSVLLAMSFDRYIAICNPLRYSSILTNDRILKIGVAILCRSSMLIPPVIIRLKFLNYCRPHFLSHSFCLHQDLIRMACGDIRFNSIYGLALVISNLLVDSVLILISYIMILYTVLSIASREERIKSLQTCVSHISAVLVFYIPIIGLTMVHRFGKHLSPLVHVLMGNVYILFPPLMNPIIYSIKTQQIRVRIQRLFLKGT
UniProt E9Q4X7, as listed by the source: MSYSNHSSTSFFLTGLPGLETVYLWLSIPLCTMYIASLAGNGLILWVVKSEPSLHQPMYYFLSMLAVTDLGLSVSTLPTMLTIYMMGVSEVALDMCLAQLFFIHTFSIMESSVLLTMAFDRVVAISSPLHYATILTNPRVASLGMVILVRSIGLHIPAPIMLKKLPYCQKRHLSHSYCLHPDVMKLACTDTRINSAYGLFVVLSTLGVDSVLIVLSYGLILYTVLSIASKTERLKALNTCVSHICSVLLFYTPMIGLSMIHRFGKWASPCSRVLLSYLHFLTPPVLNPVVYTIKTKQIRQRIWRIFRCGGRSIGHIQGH
UniProt E9Q546, as listed by the source: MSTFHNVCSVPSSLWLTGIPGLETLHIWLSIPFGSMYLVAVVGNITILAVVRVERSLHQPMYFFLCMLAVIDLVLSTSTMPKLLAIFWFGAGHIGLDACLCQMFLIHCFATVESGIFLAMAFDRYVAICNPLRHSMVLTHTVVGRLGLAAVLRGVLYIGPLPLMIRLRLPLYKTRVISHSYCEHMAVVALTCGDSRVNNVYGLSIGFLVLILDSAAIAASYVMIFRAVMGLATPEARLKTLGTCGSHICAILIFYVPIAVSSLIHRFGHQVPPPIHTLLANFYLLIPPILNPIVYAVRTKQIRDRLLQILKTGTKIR
UniProt E9Q6Z7, as listed by the source: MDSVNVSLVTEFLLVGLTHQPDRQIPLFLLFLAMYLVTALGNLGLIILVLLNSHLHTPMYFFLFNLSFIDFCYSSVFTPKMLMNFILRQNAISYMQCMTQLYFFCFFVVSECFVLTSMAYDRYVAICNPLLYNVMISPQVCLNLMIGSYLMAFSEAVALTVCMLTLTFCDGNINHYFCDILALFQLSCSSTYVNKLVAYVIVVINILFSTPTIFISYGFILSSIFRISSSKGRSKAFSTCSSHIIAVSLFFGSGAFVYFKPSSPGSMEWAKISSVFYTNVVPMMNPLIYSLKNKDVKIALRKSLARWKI
UniProt L7MU75, as listed by the source: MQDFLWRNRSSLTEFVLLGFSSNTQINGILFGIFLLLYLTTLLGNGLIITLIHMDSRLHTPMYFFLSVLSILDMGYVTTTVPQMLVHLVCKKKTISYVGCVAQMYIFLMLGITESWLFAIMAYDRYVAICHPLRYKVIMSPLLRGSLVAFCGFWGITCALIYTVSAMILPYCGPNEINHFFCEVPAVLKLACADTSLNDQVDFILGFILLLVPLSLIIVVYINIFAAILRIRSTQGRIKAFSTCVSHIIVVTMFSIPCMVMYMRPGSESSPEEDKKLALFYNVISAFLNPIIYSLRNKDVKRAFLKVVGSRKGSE
UniProt L7N210, as listed by the source: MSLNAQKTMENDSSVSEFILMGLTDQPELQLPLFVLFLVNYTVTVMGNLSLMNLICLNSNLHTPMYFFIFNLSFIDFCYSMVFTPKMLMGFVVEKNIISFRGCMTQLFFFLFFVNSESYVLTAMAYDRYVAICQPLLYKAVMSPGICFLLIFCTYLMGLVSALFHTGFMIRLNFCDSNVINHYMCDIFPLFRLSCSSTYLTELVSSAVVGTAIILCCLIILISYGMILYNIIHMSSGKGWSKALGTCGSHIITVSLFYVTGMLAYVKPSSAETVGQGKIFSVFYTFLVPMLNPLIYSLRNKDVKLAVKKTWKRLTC
UniProt Q3KPB0, as listed by the source: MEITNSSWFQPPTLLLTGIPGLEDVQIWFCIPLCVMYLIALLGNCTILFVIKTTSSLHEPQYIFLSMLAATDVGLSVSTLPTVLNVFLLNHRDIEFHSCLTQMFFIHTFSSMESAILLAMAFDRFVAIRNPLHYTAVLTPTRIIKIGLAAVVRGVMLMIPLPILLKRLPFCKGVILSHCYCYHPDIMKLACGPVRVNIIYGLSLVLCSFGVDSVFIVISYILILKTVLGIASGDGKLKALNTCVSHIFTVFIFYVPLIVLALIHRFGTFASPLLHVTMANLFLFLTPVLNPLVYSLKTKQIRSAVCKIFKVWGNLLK
UniProt Q3U0P3, as listed by the source: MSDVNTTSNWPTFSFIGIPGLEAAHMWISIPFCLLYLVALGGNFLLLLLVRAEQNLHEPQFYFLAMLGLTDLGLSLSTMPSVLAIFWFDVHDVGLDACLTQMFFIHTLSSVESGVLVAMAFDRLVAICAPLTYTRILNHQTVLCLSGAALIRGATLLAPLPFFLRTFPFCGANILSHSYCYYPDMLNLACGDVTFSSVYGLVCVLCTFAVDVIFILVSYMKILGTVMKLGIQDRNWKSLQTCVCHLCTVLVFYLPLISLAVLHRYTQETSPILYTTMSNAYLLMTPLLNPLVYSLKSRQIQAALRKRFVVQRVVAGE
UniProt Q7TQU8, as listed by the source: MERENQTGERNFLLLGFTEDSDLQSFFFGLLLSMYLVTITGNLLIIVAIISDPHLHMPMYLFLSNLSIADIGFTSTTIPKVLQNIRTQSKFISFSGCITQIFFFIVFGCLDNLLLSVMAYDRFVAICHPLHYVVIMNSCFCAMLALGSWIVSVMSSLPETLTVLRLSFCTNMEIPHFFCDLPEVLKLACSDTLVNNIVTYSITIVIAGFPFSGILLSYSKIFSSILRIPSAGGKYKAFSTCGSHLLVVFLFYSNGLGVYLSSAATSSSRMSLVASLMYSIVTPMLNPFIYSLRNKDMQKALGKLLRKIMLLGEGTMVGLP

Columns and labels:
Conditions in all cases: stereoisomer not certain
[1] = molecular target: UniProt E9PVX1
Procedure, shortened: (§1)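 Assay methods differ from source to source, frequently being transient luciferase assays in mammalian cell lines. For each receptor–molecule pair, the label responsive (active) applies when the original authors judged the measured signal statistically different from baseline, and non-responsive (inactive) applies otherwise.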

[2] = molecular target: UniProt E9PZ66
Procedure, shortened: as §1

[3] = molecular target: UniProt E9Q4X7
Procedure, shortened: as §1

[4] = molecular target: UniProt E9Q546
Procedure, shortened: as §1

[5] = molecular target: UniProt E9Q6Z7
Procedure, shortened: as §1

[6] = molecular target: UniProt L7MU75
Procedure, shortened: as §1

[7] = molecular target: UniProt L7N210
Procedure, shortened: as §1

[8] = molecular target: UniProt Q3KPB0
Procedure, shortened: as §1

[9] = molecular target: UniProt Q3U0P3
Procedure, shortened: as §1

[10] = molecular target: UniProt Q7TQU8
Procedure, shortened: as §1

Measured: odorant receptor agonist call

CCOc1cc(C=O)ccc1O
inactive: all assays above

CCC(C)=O
inactive: all assays above
